Experimental data: PMC10386108
Results are given in words; binding and its absence hold for the method and conditions named. Some binding calls cover weakened binding; strength is not graded here. Tags and fused reporters may be left off the sequences shown.

Tests used:
[1] = target: T1, Strep II nanotag displayed on recombinant Qβ phage (QβStrep); experiment: far-Western, overlay or dot blot; both purified
T1 sequence (peptide): DVEWLDERVPLVET

[2] = target: T1, Strep II nanotag displayed on recombinant Qβ phage (QβStrep); experiment: ELISA; both purified

streptavidin conjugated to HRP (from UniProt P22629 25-183)
binding [1]: binds
binding [2]: binds
